Source: the supplement of paper PMC10849652
This is one part of the list.

Sequences of proteins named here, by UniProt entry; tags and fusion partners are left off. A change or cut given only in a name is not applied to a line headed by its entry.
UniProt Q6IPR3: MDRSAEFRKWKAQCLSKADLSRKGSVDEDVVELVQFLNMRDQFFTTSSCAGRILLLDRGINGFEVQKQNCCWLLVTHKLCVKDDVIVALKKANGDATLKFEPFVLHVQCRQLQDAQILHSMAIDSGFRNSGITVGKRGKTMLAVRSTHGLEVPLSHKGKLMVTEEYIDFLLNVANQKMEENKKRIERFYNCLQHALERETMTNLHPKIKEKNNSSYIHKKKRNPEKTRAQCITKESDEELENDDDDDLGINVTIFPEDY
UniProt Q96LJ8: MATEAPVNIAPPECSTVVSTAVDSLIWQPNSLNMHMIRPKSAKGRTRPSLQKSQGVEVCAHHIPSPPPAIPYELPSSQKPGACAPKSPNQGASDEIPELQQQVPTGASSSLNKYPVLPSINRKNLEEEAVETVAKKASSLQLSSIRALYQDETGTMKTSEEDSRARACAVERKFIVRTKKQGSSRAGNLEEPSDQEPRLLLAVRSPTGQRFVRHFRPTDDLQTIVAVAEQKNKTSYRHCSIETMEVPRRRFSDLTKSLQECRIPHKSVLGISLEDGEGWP
UniProt Q9BVA1, whole entry, looked up: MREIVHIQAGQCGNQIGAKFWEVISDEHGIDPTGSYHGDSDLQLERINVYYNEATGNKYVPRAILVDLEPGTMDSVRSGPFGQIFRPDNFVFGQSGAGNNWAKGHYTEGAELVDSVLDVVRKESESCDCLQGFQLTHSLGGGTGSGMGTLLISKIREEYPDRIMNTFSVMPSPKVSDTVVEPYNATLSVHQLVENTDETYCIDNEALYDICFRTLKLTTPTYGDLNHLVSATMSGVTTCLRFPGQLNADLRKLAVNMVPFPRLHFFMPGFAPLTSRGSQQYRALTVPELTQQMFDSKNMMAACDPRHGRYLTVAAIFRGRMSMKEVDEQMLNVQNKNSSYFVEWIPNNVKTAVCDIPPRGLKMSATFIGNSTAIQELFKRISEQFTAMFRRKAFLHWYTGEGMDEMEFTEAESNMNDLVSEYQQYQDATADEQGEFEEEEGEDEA
UniProt P62253: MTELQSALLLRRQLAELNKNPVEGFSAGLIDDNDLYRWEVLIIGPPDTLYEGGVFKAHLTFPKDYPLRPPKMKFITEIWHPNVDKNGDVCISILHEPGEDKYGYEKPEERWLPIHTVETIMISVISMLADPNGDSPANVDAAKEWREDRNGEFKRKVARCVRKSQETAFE
UniProt Q14CS0: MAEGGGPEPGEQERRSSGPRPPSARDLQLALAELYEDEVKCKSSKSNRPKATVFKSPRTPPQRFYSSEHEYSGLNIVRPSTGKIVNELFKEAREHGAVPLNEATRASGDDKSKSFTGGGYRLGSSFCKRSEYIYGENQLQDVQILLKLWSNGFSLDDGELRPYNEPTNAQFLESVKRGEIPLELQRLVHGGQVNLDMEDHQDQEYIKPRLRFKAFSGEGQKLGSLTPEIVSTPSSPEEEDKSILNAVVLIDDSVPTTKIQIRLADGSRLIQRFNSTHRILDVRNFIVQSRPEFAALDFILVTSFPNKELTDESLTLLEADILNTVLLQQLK
UniProt A6NNZ2, whole entry, looked up: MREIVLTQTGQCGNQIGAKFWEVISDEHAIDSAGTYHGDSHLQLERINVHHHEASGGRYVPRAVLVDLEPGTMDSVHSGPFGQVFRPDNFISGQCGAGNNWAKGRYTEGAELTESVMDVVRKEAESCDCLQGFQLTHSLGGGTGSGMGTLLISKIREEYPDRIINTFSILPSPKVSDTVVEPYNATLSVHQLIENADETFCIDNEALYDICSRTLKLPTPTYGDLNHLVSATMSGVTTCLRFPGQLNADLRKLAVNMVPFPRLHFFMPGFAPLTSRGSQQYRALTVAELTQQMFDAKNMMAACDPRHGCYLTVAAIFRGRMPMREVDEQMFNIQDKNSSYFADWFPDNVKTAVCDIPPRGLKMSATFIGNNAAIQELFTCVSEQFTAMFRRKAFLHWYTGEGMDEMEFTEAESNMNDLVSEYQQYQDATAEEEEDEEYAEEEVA
UniProt Q13454: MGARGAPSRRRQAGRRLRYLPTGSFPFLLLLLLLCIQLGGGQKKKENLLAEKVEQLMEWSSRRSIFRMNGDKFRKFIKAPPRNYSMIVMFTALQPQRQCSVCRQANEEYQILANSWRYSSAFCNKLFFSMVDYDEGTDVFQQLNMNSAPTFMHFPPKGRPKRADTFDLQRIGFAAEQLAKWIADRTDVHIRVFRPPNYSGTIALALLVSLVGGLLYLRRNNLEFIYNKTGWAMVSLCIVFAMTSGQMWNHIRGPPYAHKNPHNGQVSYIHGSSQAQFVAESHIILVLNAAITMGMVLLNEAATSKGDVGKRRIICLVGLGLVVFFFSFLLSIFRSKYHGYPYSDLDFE
UniProt Q9NY65, whole entry, looked up: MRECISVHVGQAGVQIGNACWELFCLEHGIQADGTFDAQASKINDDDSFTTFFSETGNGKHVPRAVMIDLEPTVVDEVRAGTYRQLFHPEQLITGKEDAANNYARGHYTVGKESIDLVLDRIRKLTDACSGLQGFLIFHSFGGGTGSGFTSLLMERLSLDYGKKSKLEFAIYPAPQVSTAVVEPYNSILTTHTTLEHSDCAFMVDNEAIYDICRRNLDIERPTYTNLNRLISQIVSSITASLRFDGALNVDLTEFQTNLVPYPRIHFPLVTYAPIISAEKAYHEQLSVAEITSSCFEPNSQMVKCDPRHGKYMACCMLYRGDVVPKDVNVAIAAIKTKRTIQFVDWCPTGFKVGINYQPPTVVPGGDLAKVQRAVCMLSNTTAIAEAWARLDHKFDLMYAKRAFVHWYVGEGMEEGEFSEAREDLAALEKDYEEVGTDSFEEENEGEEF
UniProt O14530: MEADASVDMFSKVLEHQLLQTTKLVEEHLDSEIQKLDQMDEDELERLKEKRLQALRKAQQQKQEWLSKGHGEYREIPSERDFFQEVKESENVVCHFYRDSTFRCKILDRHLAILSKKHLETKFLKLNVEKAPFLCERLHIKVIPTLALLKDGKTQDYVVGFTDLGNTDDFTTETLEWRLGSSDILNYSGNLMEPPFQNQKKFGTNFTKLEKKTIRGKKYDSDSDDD
UniProt O15042: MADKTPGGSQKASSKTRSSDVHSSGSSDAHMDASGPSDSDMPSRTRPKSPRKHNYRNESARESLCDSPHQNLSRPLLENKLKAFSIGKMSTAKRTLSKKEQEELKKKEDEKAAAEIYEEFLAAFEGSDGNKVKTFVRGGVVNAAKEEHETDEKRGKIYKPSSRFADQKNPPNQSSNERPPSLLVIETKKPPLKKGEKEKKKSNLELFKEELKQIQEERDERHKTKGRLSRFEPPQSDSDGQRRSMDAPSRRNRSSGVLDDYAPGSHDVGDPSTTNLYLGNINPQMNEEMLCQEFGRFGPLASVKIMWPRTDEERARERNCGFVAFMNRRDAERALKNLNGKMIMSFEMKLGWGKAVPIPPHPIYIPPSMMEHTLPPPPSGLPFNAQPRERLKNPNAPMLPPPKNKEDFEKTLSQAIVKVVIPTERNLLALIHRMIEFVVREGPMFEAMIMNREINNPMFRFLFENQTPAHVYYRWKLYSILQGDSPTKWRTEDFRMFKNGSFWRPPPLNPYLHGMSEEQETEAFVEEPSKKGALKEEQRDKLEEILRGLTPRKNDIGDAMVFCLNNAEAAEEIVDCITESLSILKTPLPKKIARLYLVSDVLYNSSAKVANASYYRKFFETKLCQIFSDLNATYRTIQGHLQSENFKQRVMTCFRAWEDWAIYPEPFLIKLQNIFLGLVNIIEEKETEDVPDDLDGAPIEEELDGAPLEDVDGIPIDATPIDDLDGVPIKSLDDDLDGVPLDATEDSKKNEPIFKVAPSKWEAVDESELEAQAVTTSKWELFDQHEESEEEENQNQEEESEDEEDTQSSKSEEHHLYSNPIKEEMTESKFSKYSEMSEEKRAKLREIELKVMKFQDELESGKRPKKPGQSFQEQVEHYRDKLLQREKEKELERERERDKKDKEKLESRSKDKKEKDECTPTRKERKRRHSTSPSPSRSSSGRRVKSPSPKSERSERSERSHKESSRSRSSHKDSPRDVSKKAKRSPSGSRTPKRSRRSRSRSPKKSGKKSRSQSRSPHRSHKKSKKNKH
UniProt P60604: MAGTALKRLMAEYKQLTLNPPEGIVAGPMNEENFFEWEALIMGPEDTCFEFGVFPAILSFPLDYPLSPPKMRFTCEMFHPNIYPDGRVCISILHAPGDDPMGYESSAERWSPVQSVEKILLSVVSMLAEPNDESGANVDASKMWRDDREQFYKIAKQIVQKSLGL
UniProt Q14157: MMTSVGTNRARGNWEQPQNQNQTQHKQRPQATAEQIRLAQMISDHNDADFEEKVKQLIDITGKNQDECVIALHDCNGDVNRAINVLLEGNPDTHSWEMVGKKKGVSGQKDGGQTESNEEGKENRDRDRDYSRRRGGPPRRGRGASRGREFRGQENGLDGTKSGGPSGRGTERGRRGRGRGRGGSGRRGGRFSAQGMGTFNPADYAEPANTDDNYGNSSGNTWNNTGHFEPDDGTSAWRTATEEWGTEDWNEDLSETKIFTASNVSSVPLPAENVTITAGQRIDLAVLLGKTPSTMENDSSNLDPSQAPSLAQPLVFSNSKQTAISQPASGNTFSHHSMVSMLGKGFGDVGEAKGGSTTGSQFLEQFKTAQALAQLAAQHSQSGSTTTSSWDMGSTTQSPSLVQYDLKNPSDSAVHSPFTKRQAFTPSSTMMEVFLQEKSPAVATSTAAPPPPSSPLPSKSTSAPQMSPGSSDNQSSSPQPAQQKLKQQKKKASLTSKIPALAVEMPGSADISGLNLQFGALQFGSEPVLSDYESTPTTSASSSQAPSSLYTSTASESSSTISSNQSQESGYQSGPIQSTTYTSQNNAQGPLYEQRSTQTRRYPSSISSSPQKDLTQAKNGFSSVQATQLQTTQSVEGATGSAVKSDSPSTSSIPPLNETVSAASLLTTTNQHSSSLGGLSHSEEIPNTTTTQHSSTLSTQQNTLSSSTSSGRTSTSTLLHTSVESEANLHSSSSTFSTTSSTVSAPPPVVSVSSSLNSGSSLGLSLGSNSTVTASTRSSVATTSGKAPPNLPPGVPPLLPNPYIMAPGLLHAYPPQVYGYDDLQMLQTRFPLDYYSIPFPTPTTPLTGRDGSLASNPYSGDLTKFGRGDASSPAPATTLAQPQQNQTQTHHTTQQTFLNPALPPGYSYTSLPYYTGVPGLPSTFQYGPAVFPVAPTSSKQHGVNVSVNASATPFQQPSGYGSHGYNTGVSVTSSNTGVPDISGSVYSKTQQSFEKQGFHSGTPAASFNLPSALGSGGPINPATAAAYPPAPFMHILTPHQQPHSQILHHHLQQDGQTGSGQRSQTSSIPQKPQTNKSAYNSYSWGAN
UBE2L5, A0A1B0GUS4, UniProt A0A1B0GUS4, whole entry, looked up: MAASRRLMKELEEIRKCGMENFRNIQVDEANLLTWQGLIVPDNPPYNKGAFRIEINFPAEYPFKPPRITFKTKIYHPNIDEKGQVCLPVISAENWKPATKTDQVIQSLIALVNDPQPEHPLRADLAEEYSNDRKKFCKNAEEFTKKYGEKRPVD
UniProt Q96RR1: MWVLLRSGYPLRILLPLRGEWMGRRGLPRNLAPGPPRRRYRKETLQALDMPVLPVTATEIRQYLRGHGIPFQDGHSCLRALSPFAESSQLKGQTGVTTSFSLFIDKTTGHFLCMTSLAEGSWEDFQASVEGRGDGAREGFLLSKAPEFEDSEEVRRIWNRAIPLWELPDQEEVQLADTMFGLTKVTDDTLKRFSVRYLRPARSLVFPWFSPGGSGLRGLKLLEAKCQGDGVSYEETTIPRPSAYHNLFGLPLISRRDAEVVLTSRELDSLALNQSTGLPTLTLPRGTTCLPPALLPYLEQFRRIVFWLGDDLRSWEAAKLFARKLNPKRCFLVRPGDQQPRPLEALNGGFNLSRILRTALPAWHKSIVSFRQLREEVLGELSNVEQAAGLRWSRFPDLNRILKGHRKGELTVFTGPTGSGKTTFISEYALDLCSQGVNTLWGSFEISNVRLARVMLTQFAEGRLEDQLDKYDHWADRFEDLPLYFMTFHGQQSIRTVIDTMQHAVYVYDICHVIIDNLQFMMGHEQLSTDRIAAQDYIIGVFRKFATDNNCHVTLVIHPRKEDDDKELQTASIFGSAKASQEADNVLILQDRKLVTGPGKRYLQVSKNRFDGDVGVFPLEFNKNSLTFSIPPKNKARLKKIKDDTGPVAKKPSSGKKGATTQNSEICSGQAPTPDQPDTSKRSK
UniProt Q9C0H2: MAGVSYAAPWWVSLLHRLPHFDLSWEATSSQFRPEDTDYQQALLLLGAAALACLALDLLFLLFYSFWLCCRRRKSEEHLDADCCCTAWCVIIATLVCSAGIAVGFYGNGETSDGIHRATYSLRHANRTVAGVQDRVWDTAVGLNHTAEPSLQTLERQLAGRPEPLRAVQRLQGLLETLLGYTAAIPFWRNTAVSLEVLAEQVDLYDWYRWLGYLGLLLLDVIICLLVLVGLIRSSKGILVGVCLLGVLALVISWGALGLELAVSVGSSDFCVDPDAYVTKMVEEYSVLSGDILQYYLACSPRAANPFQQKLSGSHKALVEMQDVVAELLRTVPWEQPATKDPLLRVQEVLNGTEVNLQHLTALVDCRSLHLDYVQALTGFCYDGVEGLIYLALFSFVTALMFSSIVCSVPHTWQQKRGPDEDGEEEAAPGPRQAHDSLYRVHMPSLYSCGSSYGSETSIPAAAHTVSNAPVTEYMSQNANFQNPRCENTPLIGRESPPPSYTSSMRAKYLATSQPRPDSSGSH

Experiments:
Experiment in all cases: log2 fold change, soluble protein after heating vs DMSO (PISA); higher = thermal stabilisation; K562 lysate, 10 uM; active = over 0.2 and 3.5 SD of the protein, either way, in both replicates (recomputed)
ibrutinib = compound: C=CC(=O)N1CCC[C@@H](n2nc(-c3ccc(Oc4ccccc4)cc3)c3c(N)ncnc32)C1 [ibrutinib]
Summary of the method: (§1)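 Dounce homogenisation of K562 pellets in PBS pH 7.4 with 1 mM MgCl2 produced a crude extract, used at 1 mg/mL protein. Exposure to 10 μM compound lasted 30 min, and aliquots were then heated for 3 min across 48°C-58°C, pooled and brought to 0.5% NP-40 at 4°C. The supernatant after 21,000xg for 90 min was quantified by TMTpro 16plex LC-MS/MS with channel sums equalised. Duplicate values are given as log-two fold change in thermal stability relative to solvent controls.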

[1] = compound: CC(=O)c1cnc2ccc(-c3cc(Cl)c(O)c(Cl)c3)nc2c1N[C@H]1CC[C@H](CN(C)C)CC1
Summary of the method: as §1

ralimetinib = compound: CC(C)(C)Cn1c(N)nc2ccc(-c3[nH]c(C(C)(C)C)nc3-c3ccc(F)cc3)nc21 [ralimetinib]
Summary of the method: as §1

[2] = compound: CC(C)(O)CC(=O)NCCn1ccc2ncnc(Nc3ccc(Oc4cccc(C(F)(F)F)c4)c(Cl)c3)c21
Summary of the method: as §1

[3] = compound: CC(C)C1=C2N=C(C=C(N2N=C1)NCC3=CC=CC=C3)NCCCCCCN
Summary of the method: as §1

[4] = compound: CC1=C(C(CC(=O)N1)C2=CC=C(C=C2)C(F)(F)F)C(=O)NC3=C(C=C4C(=C3)C=NN4)F
Summary of the method: as §1

[5] = compound: CC1=C(C2=C(C=C1)C(=O)C3=CC=CC=C3N2CCCN)C
Summary of the method: as §1

[6] = compound: CC1=C(C=C(C=C1)NC(=O)C2=CC(=CC=C2)C(C)(C)C#N)NC3=CC4=C(C=C3)N=CN(C4=O)C
Summary of the method: as §1

[7] = compound: CC1=C(C=C(C=C1)NC(=O)C2=CC(=CC=C2)N(C)C)NC(=O)C3=CC=C(C=C3)O
Summary of the method: as §1

[8] = compound: CC1=CC=C(C=C1)SC2=C3C=C(SC3=CN=C2)C(=O)N
Summary of the method: as §1

Target	log2 fold change (ibrutinib)	log2 fold change [1]	log2 fold change (ralimetinib)	log2 fold change [2]	log2 fold change [3]	log2 fold change [4]	log2 fold change [5]	log2 fold change [6]	log2 fold change [7]	log2 fold change [8]
TYW3 (UniProt Q6IPR3)	inactive: -0.052	inactive: -0.054	inactive: -0.016	inactive: -0.081	inactive: 0.043	inactive: -0.015	inactive: -0.021	inactive: 0.025	inactive: 0.01	inactive: -0.004
UBL5 (UniProt Q9BZL1)	inactive: 0.052	–	inactive: -0.029	inactive: 0.04	inactive: -0.003	inactive: -0.056	inactive: 0.032	inactive: 0.038	inactive: 0.037	–
UBXN10 (UniProt Q96LJ8)	inactive: 0.016	inactive: 0.044	inactive: 0.002	inactive: -0.012	inactive: 0.014	–	inactive: 0.012	inactive: -0.001	inactive: 0.069	inactive: -0.015
TUBA3C (UniProt P0DPH7)	inactive: -0.009	inactive: -0.007	inactive: 0.041	inactive: -0.045	inactive: -0.047	inactive: 0.002	inactive: 0.029	inactive: -0.021	inactive: 0.038	inactive: 0.001
TXNIP (UniProt Q9H3M7)	inactive: -0.009	–	inactive: 0.007	inactive: -0.02	inactive: -0.053	inactive: 0.011	inactive: -0.036	inactive: 0.037	inactive: 0.016	–
TUBGCP5 (UniProt Q96RT8)	inactive: 0.036	inactive: 0.363	inactive: 0.038	inactive: 0.026	–	inactive: 0.009	inactive: 0.001	inactive: -0.007	inactive: -0.049	inactive: -0.118
UAP1L1 (UniProt Q3KQV9)	inactive: 0.016	inactive: -0.003	inactive: 0.079	inactive: -0.034	inactive: -0.01	inactive: -0.002	inactive: 0.064	inactive: -0.047	inactive: -0.074	inactive: 0.088
UBE2J2 (UniProt Q8N2K1)	inactive: -0.006	–	inactive: 0.088	inactive: 0.039	inactive: -0.007	inactive: 0.052	inactive: 0.151	inactive: -0.094	inactive: 0.01	–
TXNDC2 (UniProt Q86VQ3)	inactive: 0.02	inactive: -0.059	inactive: -0.131	inactive: 0.027	inactive: 0.06	inactive: -0.195	–	inactive: 0.034	inactive: 0.129	inactive: -0.007
TUBB2B (UniProt Q9BVA1)	inactive: 0.087	inactive: -0.059	–	–	–	inactive: -0.055	inactive: -0.149	–	–	inactive: 0.027
UBE2G1 (UniProt P62253)	inactive: -0.002	inactive: 0.035	inactive: -0.011	inactive: 0.013	inactive: -0.006	inactive: 0.008	inactive: -0.011	inactive: 0.011	inactive: -0.023	inactive: 0.002
UBE2I (UniProt H3BQQ9)	inactive: 0.056	inactive: -0.034	inactive: 0	inactive: -0.23	–	–	inactive: -0.018	inactive: -0.237	inactive: 0.019	inactive: 0
UBXN2B (UniProt Q14CS0)	inactive: 0.108	inactive: 0.19	inactive: 0.087	inactive: -0.075	inactive: 0.002	inactive: -0.189	inactive: -0.192	–	inactive: 0.022	inactive: -0.011
TXNRD3 (UniProt Q86VQ6)	inactive: 0.099	inactive: -0.083	–	–	inactive: -0.062	–	–	–	–	inactive: -0.214
TUBB8B (UniProt A6NNZ2)	inactive: -0.078	inactive: -0.043	inactive: 0.039	inactive: -0.205	–	inactive: 0.046	inactive: 0.078	–	inactive: -0.04	inactive: -0.106
TYW5 (UniProt A2RUC4)	inactive: 0.034	inactive: 0.002	–	–	inactive: -0.044	inactive: -0.012	–	inactive: -0.028	–	inactive: 0.028
TUFM (UniProt P49411)	inactive: 0.009	inactive: 0.011	inactive: 0.011	inactive: 0.043	inactive: 0.017	inactive: -0.031	inactive: 0.012	inactive: -0.005	inactive: 0.035	inactive: 0.016
TUSC3 isoform 2 (UniProt Q13454)	inactive: -0.012	inactive: -0.019	inactive: 0.015	inactive: -0.015	inactive: 0.034	inactive: 0.03	inactive: 0.06	inactive: 0.028	inactive: -0.068	inactive: -0.015
TXNRD2 isoform 3 (UniProt Q9NNW7)	–	–	inactive: -0.018	inactive: -0.323	inactive: -0.303	–	–	–	inactive: 0.079	–
TUBA8 (UniProt Q9NY65)	inactive: -0.025	–	–	–	inactive: -0.01	inactive: -0.055	inactive: -0.135	–	–	–
UBR4 isoform 4 (UniProt Q5T4S7)	–	inactive: 0.131	inactive: -0.092	inactive: -0.201	inactive: 0.111	–	inactive: 0.331	–	inactive: -0.02	inactive: 0.034
UBAP2L (UniProt F8W726)	–	inactive: 0.275	–	–	–	–	–	active: -0.547	–	inactive: -0.025
UBAP2, A0A0D9SFI5	–	–	–	–	–	–	–	inactive: 0.035	–	–
U2AF1L5 (UniProt P0DN76)	–	inactive: -0.047	inactive: -0.019	inactive: 0.001	inactive: 0.069	inactive: -0.008	inactive: -0.003	–	inactive: 0.143	inactive: 0.011
TXNDC9 isoform 2 (UniProt O14530)	–	–	–	–	–	–	inactive: 0.13	–	–	–
UBN1 (UniProt Q9NPG3)	–	inactive: 0.015	–	–	–	–	inactive: 0.03	inactive: 0.066	–	inactive: 0.081
U2SURP isoform 2 (UniProt O15042)	–	–	–	–	inactive: 0.325	–	inactive: -0.028	–	–	–

Target	log2 fold change (ibrutinib)	log2 fold change [1]	log2 fold change (ralimetinib)	log2 fold change [2]	log2 fold change [3]	log2 fold change [4]	log2 fold change [5]	log2 fold change [6]	log2 fold change [7]	log2 fold change [8]
UBA2 (UniProt K7ESK7)	–	inactive: -0.011	–	–	–	–	–	–	–	inactive: -0.01
TVP23C (UniProt Q96ET8)	–	–	–	–	–	–	–	inactive: 0.062	–	–
UBE2G2 (UniProt P60604)	–	inactive: -0.05	inactive: 0.055	inactive: -0.017	inactive: 0.13	inactive: 0.022	inactive: -0.036	inactive: 0.009	inactive: -0.02	inactive: 0.104
TYRO3 (UniProt Q06418)	inactive: 0.11	–	inactive: -0.023	inactive: -0.026	–	–	–	inactive: -0.008	inactive: 0.169	–
UBAP2L isoform 1 (UniProt Q14157)	inactive: -0.075	–	inactive: -0.306	inactive: -0.123	–	inactive: 0.114	–	active: -0.833	inactive: -0.161	–
TYK2 (UniProt P29597)	–	–	–	–	inactive: 0.029	–	–	inactive: -0.003	–	–
UBA7 (UniProt P41226)	–	–	–	–	inactive: 0.074	–	–	inactive: -0.015	–	–
UBXN8 (UniProt O00124)	–	–	inactive: 0.027	inactive: -0.298	inactive: -0.041	inactive: -0.006	inactive: -0.316	inactive: 0.099	inactive: -0.013	–
UBXN7 (UniProt H7BYF4)	–	inactive: 0.008	–	–	–	inactive: -0.068	–	–	–	inactive: -0.003
UBIAD1 (UniProt Q9Y5Z9)	–	inactive: -0.012	inactive: 0.01	inactive: 0.007	inactive: 0.067	inactive: -0.159	inactive: -0.049	inactive: 0.088	inactive: 0.012	inactive: 0.009
UBAP2 (UniProt Q5JV08)	–	–	–	–	–	inactive: -0.097	–	–	–	–
UBE2O (UniProt K7ES11)	–	inactive: 0.096	–	–	–	–	–	–	–	inactive: -0.05
UBOX5 (UniProt O94941)	–	–	inactive: 0.057	inactive: 0.052	inactive: 0.025	inactive: -0.008	inactive: -0.028	–	inactive: -0.021	–
UBQLN1 (UniProt H0YEZ9)	–	–	–	–	inactive: 0.012	–	–	–	–	–
UBE2L5, A0A1B0GUS4	–	inactive: 0.018	inactive: -0.098	inactive: 0.107	inactive: 0.085	–	–	–	inactive: 0.112	inactive: 0.011
TWNK (UniProt Q96RR1)	inactive: 0.014	–	inactive: -0.12	inactive: -0.337	inactive: -0.015	inactive: 0.057	inactive: -0.145	inactive: 0.166	inactive: -0.058	–
UBE2K (UniProt D6RDM7)	–	inactive: -0.219	–	–	inactive: 0.03	inactive: -0.12	–	–	–	inactive: -0.06
TUFT1 (UniProt Q9NNX1)	inactive: 0.011	–	inactive: -0.008	inactive: 0.001	inactive: -0.177	inactive: 0.016	–	–	inactive: -0.024	–
UBN2 (UniProt Q6ZU65)	–	–	inactive: -0.063	inactive: -0.221	inactive: 0.04	inactive: -0.145	inactive: 0.008	inactive: -0.075	inactive: -0.162	–
TXNDC16 (UniProt Q9P2K2)	–	inactive: 0.059	inactive: -0.19	inactive: -0.131	inactive: 0.149	–	inactive: 0.036	inactive: 0.006	inactive: 0.045	inactive: -0.07
U2AF2 (UniProt K7ELP8)	–	inactive: -0.141	–	–	–	inactive: 0.003	–	–	–	inactive: 0.081
TULP3 isoform 2 (UniProt O75386)	–	–	inactive: 0.057	inactive: -0.042	inactive: 0.11	inactive: 0.03	inactive: -0.006	–	inactive: 0.006	–
UBQLN1 isoform 2 (UniProt Q9UMX0)	–	inactive: 0	inactive: -0.051	inactive: 0.018	inactive: -0.32	–	inactive: -0.015	inactive: -0.024	inactive: -0.013	inactive: 0.094
UBA2 (UniProt U3KQ93)	–	–	–	–	inactive: -0.009	–	–	inactive: 0.193	–	–
UBE2W isoform 3 (UniProt Q96B02)	inactive: 0.189	–	–	–	inactive: 0.041	–	–	–	–	–
TTYH3 isoform 4 (UniProt Q9C0H2)	–	–	–	–	inactive: -0.209	–	–	–	–	–

Reformatted in markdown: part of the list above

| Target | log2 fold change (ibrutinib) | log2 fold change [1] | log2 fold change (ralimetinib) | log2 fold change [2] | log2 fold change [3] | log2 fold change [4] | log2 fold change [5] | log2 fold change [6] | log2 fold change [7] | log2 fold change [8] |
| --- | --- | --- | --- | --- | --- | --- | --- | --- | --- | --- |
| UBXN8 (UniProt O00124) | – | – | inactive: 0.027 | inactive: -0.298 | inactive: -0.041 | inactive: -0.006 | inactive: -0.316 | inactive: 0.099 | inactive: -0.013 | – |
| UBE2O (UniProt K7ES11) | – | inactive: 0.096 | – | – | – | – | – | – | – | inactive: -0.05 |
| UBE2W isoform 3 (UniProt Q96B02) | inactive: 0.189 | – | – | – | inactive: 0.041 | – | – | – | – | – |
